Measurements published in patent US20120121603A1 (THERACLONE SCIENCES, published 2012).
These are yes or no findings as the source states them, for the method shown. Some results given as binding are weak or reduced against the parent protein; the word gives no strength.

The chains behind the UniProt entries cited, without tags or fusion partners.
UniProt P06821: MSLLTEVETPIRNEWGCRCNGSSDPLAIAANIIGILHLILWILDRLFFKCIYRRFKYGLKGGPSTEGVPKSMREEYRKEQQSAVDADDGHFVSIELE

Assays:
[1] = biological target: influenza A/Puerto Rico/8/34 (PR8) virus, M2 on virions (Influenza A virus A/Puerto Rico/8/34 (PR8)) (UniProt P06821); experiment: binding to influenza virions
[2] = biological target: influenza A/Puerto Rico/8/34 (PR8) virus, M2 on virions (Influenza A virus A/Puerto Rico/8/34 (PR8)) (UniProt P06821); experiment: ELISA, crude supernatant on PR8 virus coated plates
[3] = biological target: influenza A/Puerto Rico/8/34 (PR8) virus, M2 on virions (Influenza A virus A/Puerto Rico/8/34 (PR8)) (UniProt P06821); experiment: ELISA, crude supernatant on influenza virus

Measured: binding

B1: 8I10 (antibody, V domains shown)
VH: QVQLQESGPGLVKPSETLSLTCTVSGSSISNYYWSWIRQSPGKGLEWIGFIYYGGNTKYNPSLKSRVTISQDTSKSQVSLTMSSVTAAESAVYFCARASCSGGYCILDYWGQGTLVTVSR
VL: DIQMTQSPSSLSASVGDRVTITCRASQNIYKYLNWYQQRPGKAPKGLISAASGLQSGVPSRFSGSGSGTDFTLTITSLQPEDFATYYCQQSYSPPLTFGGGTRVEIKR
binds: all assays above

B2: 21B15 (antibody, V domains shown)
VH: QVQLQESGPGLVKPSETLSLTCTVSGSSISNYYWSWIRQSPGKGLEWIGFIYYGGNTKYNPSLKSRVTISQDTSKSQVSLTMSSVTAAESAVYFCARASCSGGYCILDYWGQGTLVTVS
VL: DIQVTQSPSSLSASVGDRVTITCRASQNIYKYLNWYQQRPGKAPKGLISAASGLQSGVPSRFSGSGSGTDFTLTITSLQPEDFATYYCQQSYSPPLTFGGGTRVDIK
binds: all assays above
